The target of experiment [1] is CLuc-BES1 (Arabidopsis) (UniProt Q9LN63). In words: split reporter; split luciferase complementation; RD26-NLuc and CLuc-BES1 co-expressed in tobacco leaves via Agrobacterium; Luc activity measured in protein extracts and normalized against total protein.
Experiment [2] concerns the target BES1-GFP (Arabidopsis) (UniProt Q9LN63). In words: co-IP; BES1-GFP and RD26-MYC co-expressed in tobacco leaves; protein extract immunoprecipitated with anti-GFP antibody and protein A beads at 4 °C; lysis buffer with 75 mM NaCl, 0.05% SDS, 0.1% Triton X-100, pH 7.4; blotted with anti-BES1 and anti-MYC.
In experiment [3] the target is BES1-YFPN (Arabidopsis) (UniProt Q9LN63). As to the kind of experiment: split reporter; BiFC; BES1-YFPN and RD26-YFPC co-expressed in Nicotiana benthamiana leaves; YFP seen by confocal microscopy 2 days after infiltration.

The chains behind the UniProt entries cited, without tags or fusion partners.
UniProt Q9LN63: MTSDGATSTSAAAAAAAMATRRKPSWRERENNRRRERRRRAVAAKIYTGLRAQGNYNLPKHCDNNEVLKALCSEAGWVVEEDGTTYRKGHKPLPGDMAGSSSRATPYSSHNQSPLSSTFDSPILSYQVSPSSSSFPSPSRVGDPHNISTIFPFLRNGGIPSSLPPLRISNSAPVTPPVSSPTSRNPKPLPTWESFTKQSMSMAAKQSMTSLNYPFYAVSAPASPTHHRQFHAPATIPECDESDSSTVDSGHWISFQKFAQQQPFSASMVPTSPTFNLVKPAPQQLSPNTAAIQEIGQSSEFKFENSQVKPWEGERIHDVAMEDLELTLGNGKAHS

Results are given in words; binding and its absence hold for the method and conditions named. In cells and extracts the contact can be indirect. Some binding calls cover weakened binding; strength is not graded here. For part of these data: Tags and fused reporters may be left off the sequences shown.

B1: RD26-NLuc (protein, UniProt Q93VY3 1-297)
chain: MGVREKDPLAQLSLPPGFRFYPTDEELLVQYLCRKVAGYHFSLQVIGDIDLYKFDPWDLPSKALFGEKEWYFFSPRDRKYPNGSRPNRVAGSGYWKATGTDKIITADGRRVGIKKALVFYAGKAPKGTKTNWIMHEYRLIEHSRSHGSSKLDDWVLCRIYKKTSGSQRQAVTPVQACREEHSTNGSSSSSSSQLDDVLDSFPEIKDQSFNLPRMNSLRTILNGNFDWASLAGLNPIPELAPTNGLPSYGGYDAFRAAEGEAESGHVNRQQNSSGLTQSFGYSSSGFGVSGQTFEFRQ
As to B1, the binding result in experiment [1] is reported as “binds”.

B2: RD26-MYC (protein, UniProt Q93VY3 1-297)
chain: B1 chain
Consider B2, for which, in experiment [2], the binding entry is reported as “binds”.

B3: RD26-YFPC (protein, UniProt Q93VY3 1-297)
chain: B1 chain
With B3, the binding entry in experiment [3] is on record as “binds”.

(Values after paper PMC5333127, “RD26 mediates crosstalk between drought and brassinosteroid signalling pathways” (Nature Communications, 2017).)
